PubChem BioAssay AID1159578, Peter MacCallum Cancer Centre | 2015
Aim: 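siRNA pools altering how lymphatic endothelial cells close a scratch wound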 (primary screen). Cell system: human lymphatic endothelial cells. Reagents: siRNA pool against human genes, 40 nM. Time to read-out: 48 h after transfection. Measured: 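High-content imaging of dye-stained cells in a scratch assay measures filled wound area and nuclei per well; duplicate means given as ratio to mock and robust z-score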. Direction: migration robust z-score: higher = faster migration into the scratch; migration relative to mock: higher = more scratch area covered than mock; nuclei per well: higher = more cells in the well. Hit rule: 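Migration changed when robust z exceeds 2 or falls below -2 and mean nuclei number is at least 3300; otherwise not called changed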. Calls: active = migration changed; inactive = no migration change, or too few cells.
In all, the deposit lists about 18,000 reagents; this is a part drawn at random. About 1,030 of them (5.7%) were called active. 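Inactive calls also include pools with fewer than 3300 nuclei, whose migration was not assessed.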 The raw values are shown without normalisation. Reagents against one gene are numbered here.

| gene symbol | reagent | migration robust z-score | migration class with cell-count check | migration relative to mock | nuclei per well, duplicate mean | outcome |
| --- | --- | --- | --- | --- | --- | --- |
| RBSN | 1 | 0.31 | migration z between -2 and 2; enough cells | 0.96 | 5956 | inactive |
| BRINP3 | 1 | 0.4 | migration z between -2 and 2; enough cells | 0.99 | 4975 | inactive |
| TRAM1 | 1 | 0.22 | migration z between -2 and 2; enough cells | 0.94 | 5842 | inactive |
| LHFPL5 | 1 | -1.56 | migration z between -2 and 2; enough cells | 0.48 | 5976 | inactive |
| FCHSD2 | 1 | 0.1 | migration z between -2 and 2; enough cells | 0.92 | 4906 | inactive |
| DNHD1 | 1 | 0.34 | migration z between -2 and 2; enough cells | 0.98 | 5977 | inactive |
| DNHD1 | 2 | -1.72 | migration z between -2 and 2; enough cells | 0.43 | 4535 | inactive |
| MAB21L4 | 1 | 0.16 | migration z between -2 and 2; enough cells | 0.92 | 6800 | inactive |
| PARS2 | 1 | 0.21 | migration z between -2 and 2; enough cells | 0.94 | 7252 | inactive |
| CGRRF1 | 1 | 0.21 | migration z between -2 and 2; enough cells | 0.84 | 3892 | inactive |
| CASP8 | 1 | 0.2 | migration z between -2 and 2; enough cells | 0.84 | 5698 | inactive |
| DPCD | 1 | 0.41 | migration z between -2 and 2; enough cells | 0.99 | 5594 | inactive |
| WSB1 | 1 | 0.98 | migration z between -2 and 2; enough cells | 1 | 6120 | inactive |
| TBC1D20 | 1 | 0.42 | migration z between -2 and 2; enough cells | 0.99 | 5904 | inactive |
| FAM3B | 1 | 1.88 | migration z between -2 and 2; enough cells | 1.38 | 6811 | inactive |
| CD200R1L | 1 | -2.43 | migration z below -2; enough cells | 0.26 | 3434 | active |
| COMMD6 | 1 | 0.04 | migration z between -2 and 2; enough cells | 0.9 | 5716 | inactive |
| TTI1 | 1 | 0.64 | migration z between -2 and 2; enough cells | 1.05 | 5800 | inactive |
| VN1R1 | 1 | -2.91 | under 3300 nuclei; migration not judged | 0.24 | 3044 | inactive |
| OR4X2 | 1 | 0.9 | migration z between -2 and 2; enough cells | 1.12 | 5048 | inactive |
| PLA2G3 | 1 | -1.42 | migration z between -2 and 2; enough cells | 0.53 | 4556 | inactive |
| HEPACAM | 1 | 1.19 | migration z between -2 and 2; enough cells | 1.19 | 5386 | inactive |
| SLC25A42 | 1 | -0.5 | migration z between -2 and 2; enough cells | 0.76 | 6570 | inactive |
| WFDC5 | 1 | 1.43 | migration z between -2 and 2; enough cells | 1.25 | 6291 | inactive |
| OR10S1 | 1 | 1.48 | migration z between -2 and 2; enough cells | 1.27 | 5534 | inactive |
| ZFPL1 | 1 | -0.08 | migration z between -2 and 2; enough cells | 0.86 | 5545 | inactive |
| SEM1 | 1 | 0.13 | migration z between -2 and 2; enough cells | 0.92 | 5862 | inactive |
| SDC2 | 1 | 1.14 | migration z between -2 and 2; enough cells | 1.18 | 6987 | inactive |
| ADAMTS18 | 1 | 1.32 | migration z between -2 and 2; enough cells | 1.06 | 5270 | inactive |
| CDHR2 | 1 | -0.66 | migration z between -2 and 2; enough cells | 0.72 | 5850 | inactive |
| KISS1R | 1 | 0.6 | migration z between -2 and 2; enough cells | 0.92 | 6430 | inactive |
| DTWD2 | 1 | 0.14 | migration z between -2 and 2; enough cells | 0.92 | 6968 | inactive |
| PIP4P2 | 1 | -0.1 | migration z between -2 and 2; enough cells | 0.86 | 6552 | inactive |
| MAP9 | 1 | -0.24 | migration z between -2 and 2; enough cells | 0.82 | 6332 | inactive |
| DNAH8 | 1 | 0.36 | migration z between -2 and 2; enough cells | 0.88 | 5689 | inactive |
| CUX1 | 1 | 0.46 | migration z between -2 and 2; enough cells | 1 | 7581 | inactive |
| TMPRSS6 | 1 | 1.4 | migration z between -2 and 2; enough cells | 1.07 | 5603 | inactive |
| CHIC1 | 1 | -0.22 | migration z between -2 and 2; enough cells | 0.83 | 6422 | inactive |
| ZNF366 | 1 | -1.6 | migration z between -2 and 2; enough cells | 0.47 | 5624 | inactive |
| RNF145 | 1 | 0.18 | migration z between -2 and 2; enough cells | 0.84 | 5365 | inactive |
| GLRB | 1 | 0.08 | migration z between -2 and 2; enough cells | 0.82 | 5642 | inactive |
| KCNJ3 | 1 | -0.1 | migration z between -2 and 2; enough cells | 0.78 | 5385 | inactive |
| ETV1 | 1 | 0.34 | migration z between -2 and 2; enough cells | 0.87 | 5840 | inactive |
| FLG2 | 1 | -2.34 | migration z below -2; enough cells | 0.28 | 4867 | active |
| TRIM69 | 1 | -1.27 | migration z between -2 and 2; enough cells | 0.56 | 3674 | inactive |
| CYP2A6 | 1 | 0.9 | migration z between -2 and 2; enough cells | 1.12 | 7277 | inactive |
| RPS6KB1 | 1 | -1.32 | migration z between -2 and 2; enough cells | 0.55 | 4389 | inactive |
| AFDN-DT | 1 | 0.56 | migration z between -2 and 2; enough cells | 1.02 | 5996 | inactive |
| GTPBP3 | 1 | -0.88 | migration z between -2 and 2; enough cells | 0.66 | 5381 | inactive |
| CIMAP1C | 1 | 0.45 | migration z between -2 and 2; enough cells | 1 | 4032 | inactive |
| CSKMT | 1 | 0.5 | migration z between -2 and 2; enough cells | 1.01 | 4968 | inactive |
| EEFSEC | 1 | 2.21 | migration z above 2; enough cells | 1.23 | 3906 | active |
| TET2 | 1 | 2.4 | migration z above 2; enough cells | 1.5 | 7480 | active |
| OR1A2 | 1 | -0.83 | migration z between -2 and 2; enough cells | 0.67 | 7422 | inactive |
| MDH2 | 1 | -0.6 | migration z between -2 and 2; enough cells | 0.69 | 6624 | inactive |
| PACRGL | 1 | -1.96 | migration z between -2 and 2; enough cells | 0.38 | 4003 | inactive |
| NAPG | 1 | -0.66 | migration z between -2 and 2; enough cells | 0.71 | 5765 | inactive |
| FGF4 | 1 | 2.62 | migration z above 2; enough cells | 1.31 | 5678 | active |
| PRTFDC1 | 1 | 0.26 | migration z between -2 and 2; enough cells | 0.86 | 5966 | inactive |
| MOGAT1 | 1 | 1.17 | migration z between -2 and 2; enough cells | 1.03 | 5936 | inactive |
| DEGS2 | 1 | 1.76 | migration z between -2 and 2; enough cells | 1.15 | 5176 | inactive |
| B3GNT7 | 1 | -0.06 | migration z between -2 and 2; enough cells | 0.8 | 4984 | inactive |
| LTB | 1 | 1.02 | migration z between -2 and 2; enough cells | 1.15 | 5046 | inactive |
| TIMM17A | 1 | 0.36 | migration z between -2 and 2; enough cells | 0.98 | 4933 | inactive |
| SLC25A36 | 1 | 0.44 | migration z between -2 and 2; enough cells | 0.89 | 5997 | inactive |
| VN1R2 | 1 | 0.36 | migration z between -2 and 2; enough cells | 0.88 | 6172 | inactive |
| MDK | 1 | 0 | migration z between -2 and 2; enough cells | 0.8 | 4769 | inactive |
| HLA-DRA | 1 | -0.26 | migration z between -2 and 2; enough cells | 0.76 | 6531 | inactive |
| ASXL1 | 1 | -0.93 | migration z between -2 and 2; enough cells | 0.64 | 5628 | inactive |
| SPC24 | 1 | 0.84 | migration z between -2 and 2; enough cells | 1.1 | 5832 | inactive |
| CHRDL2 | 1 | 0.35 | migration z between -2 and 2; enough cells | 0.98 | 7831 | inactive |
| COA4 | 1 | -2.54 | under 3300 nuclei; migration not judged | 0.23 | 2126 | inactive |
| SMPD4 | 1 | -0.2 | migration z between -2 and 2; enough cells | 0.83 | 6434 | inactive |

An excerpt from above, showing only “migration robust z-score”.
VN1R1 = -2.91
OR4X2 = 0.9
PLA2G3 = -1.42
HEPACAM = 1.19
SLC25A42 = -0.5
WFDC5 = 1.43
OR10S1 = 1.48
ZFPL1 = -0.08
SEM1 = 0.13
